What all share (assay): co-IP
Test [1] addresses T1, NLRP1 (human (endogenous in THP-1)) (UniProt Q9C000).
T1 sequence: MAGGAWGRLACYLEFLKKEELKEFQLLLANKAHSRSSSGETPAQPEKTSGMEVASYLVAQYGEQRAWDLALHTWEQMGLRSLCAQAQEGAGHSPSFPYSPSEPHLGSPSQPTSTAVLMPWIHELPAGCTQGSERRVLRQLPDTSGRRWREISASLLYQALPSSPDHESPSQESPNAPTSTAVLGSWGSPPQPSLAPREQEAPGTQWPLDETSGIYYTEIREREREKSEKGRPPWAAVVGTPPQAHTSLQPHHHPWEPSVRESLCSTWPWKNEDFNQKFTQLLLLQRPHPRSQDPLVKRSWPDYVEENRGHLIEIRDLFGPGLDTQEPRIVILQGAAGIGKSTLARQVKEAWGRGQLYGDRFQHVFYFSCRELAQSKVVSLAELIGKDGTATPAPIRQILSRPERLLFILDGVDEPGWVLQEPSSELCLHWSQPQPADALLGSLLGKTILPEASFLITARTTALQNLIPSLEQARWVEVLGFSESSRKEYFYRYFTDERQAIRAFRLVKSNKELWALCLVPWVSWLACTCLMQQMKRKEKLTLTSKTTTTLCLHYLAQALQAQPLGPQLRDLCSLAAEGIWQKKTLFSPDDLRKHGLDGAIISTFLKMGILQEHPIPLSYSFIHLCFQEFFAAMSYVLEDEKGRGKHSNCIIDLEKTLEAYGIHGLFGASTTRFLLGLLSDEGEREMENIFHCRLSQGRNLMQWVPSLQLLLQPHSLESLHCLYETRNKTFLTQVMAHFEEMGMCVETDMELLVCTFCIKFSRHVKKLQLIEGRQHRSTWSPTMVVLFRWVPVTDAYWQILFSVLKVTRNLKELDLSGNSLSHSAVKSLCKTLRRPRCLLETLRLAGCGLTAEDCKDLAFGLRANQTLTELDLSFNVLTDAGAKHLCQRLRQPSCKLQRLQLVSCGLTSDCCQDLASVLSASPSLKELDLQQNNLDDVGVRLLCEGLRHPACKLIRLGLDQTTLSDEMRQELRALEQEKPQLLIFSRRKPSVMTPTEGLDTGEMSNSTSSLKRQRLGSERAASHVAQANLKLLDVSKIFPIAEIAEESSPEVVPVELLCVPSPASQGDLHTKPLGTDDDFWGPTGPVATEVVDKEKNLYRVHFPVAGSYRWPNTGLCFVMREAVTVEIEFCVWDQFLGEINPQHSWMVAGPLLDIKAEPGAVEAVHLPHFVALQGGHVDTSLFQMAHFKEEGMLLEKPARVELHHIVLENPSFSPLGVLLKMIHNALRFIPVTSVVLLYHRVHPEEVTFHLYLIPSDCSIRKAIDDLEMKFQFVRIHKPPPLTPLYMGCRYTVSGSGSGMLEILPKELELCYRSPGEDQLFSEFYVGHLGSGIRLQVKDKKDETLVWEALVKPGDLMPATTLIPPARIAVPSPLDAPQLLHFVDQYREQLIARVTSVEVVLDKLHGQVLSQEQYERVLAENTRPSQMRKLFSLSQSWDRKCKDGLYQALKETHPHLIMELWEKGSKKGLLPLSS

The chains behind the UniProt entries cited, without tags or fusion partners.
UniProt Q8TDX7: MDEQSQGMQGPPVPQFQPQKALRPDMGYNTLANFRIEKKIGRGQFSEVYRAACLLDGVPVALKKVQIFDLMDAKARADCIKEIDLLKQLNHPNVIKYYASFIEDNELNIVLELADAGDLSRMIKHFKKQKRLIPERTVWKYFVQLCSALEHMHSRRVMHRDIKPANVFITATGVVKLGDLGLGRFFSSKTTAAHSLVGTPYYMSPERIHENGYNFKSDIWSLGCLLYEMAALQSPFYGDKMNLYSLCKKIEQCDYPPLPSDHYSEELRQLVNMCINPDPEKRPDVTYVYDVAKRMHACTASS
UniProt Q9ULZ3: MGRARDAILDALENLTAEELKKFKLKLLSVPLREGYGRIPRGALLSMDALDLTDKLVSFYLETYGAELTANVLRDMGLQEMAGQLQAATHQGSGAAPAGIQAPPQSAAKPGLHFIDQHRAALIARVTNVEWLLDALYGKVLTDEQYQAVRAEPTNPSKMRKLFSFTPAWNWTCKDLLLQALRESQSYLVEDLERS

For test [2], the target named is NEK7 (human (endogenous in THP-1)) (UniProt Q8TDX7).
The target is the same in test [3]. This is another data set of the same source.

Where two headings read alike, the source gives them in different places. These are yes or no findings as the source states them, for the method shown. Binding seen in cells or lysates may run through a third protein. Some results given as binding are weak or reduced against the parent protein; the word gives no strength.

Consider ASC (from UniProt Q9ULZ3 1-195), for which the binding entry in test [1] and in test [2] was “binds” each time.

B1: NLRP10 (protein, UniProt Q86W26 1-655)
chain: MAMAKARKPREALLWALSDLEENDFKKLKFYLRDMTLSEGQPPLARGELEGLIPVDLAELLISKYGEKEAVKVVLKGLKVMNLLELVDQLSHICLHDYREVYREHVRCLEEWQEAGVNGRYNQVLLVAKPSSESPESLACPFPEQELESVTVEALFDSGEKPSLAPSLVVLQGSAGTGKTTLARKMVLDWATGTLYPGRFDYVFYVSCKEVVLLLESKLEQLLFWCCGDNQAPVTEILRQPERLLFILDGFDELQRPFEEKLKKRGLSPKESLLHLLIRRHTLPTCSLLITTRPLALRNLEPLLKQARHVHILGFSEEERARYFSSYFTDEKQADRAFDIVQKNDILYKACQVPGICWVVCSWLQGQMERGKVVLETPRNSTDIFMAYVSTFLPPDDDGGCSELSRHRVLRSLCSLAAEGIQHQRFLFEEAELRKHNLDGPRLAAFLSSNDYQLGLAIKKFYSFRHISFQDFFHAMSYLVKEDQSRLGKESRREVQRLLEVKEQEGNDEMTLTMQFLLDISKKDSFSNLELKFCFRISPCLAQDLKHFKEQMESMKHNRTWDLEFSLYEAKIKNLVKGIQMNNVSFKIKHSNEKKSQSQNLFSVKSSLSHGPKEEQKCPSVHGQKEGKDNIAGTQKEASTGKGRGTEETPKNTYI
Turning to B1, in test [3], the binding entry is reported as “no binding”.

B2: NLRP1 (protein, UniProt Q9C000 1-1473)
chain: T1 sequence
As for B2, the binding result in test [3] and in test [2] was “binds” in each case.
